{
  "source": "paper PMC7819943",
  "about": "“Rice protein-binding microarrays: a tool to detect cis-acting elements near promoter regions in rice”",
  "note": "The other results are listed elsewhere or left out.",
  "data": [
    {"target": "T1, OsSMF1 (Oryza sativa, UniProt Q6ZLB0 1-436)", "T1 sequence": "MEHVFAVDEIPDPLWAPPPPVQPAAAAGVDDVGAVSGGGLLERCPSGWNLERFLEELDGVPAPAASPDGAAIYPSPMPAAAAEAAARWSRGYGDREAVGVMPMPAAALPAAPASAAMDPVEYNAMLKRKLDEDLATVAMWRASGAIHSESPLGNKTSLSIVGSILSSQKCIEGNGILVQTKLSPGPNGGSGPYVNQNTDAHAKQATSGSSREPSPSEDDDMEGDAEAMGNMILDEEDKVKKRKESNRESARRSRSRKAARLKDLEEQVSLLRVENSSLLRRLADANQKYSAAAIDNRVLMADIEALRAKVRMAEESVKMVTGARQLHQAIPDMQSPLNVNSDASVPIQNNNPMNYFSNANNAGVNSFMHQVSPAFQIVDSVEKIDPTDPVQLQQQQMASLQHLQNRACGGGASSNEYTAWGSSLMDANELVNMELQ", "assay": "protein-binding microarray (RPBM); PBS, 2% BSA, 51.3 ng/ul salmon testes DNA, 50 uM zinc acetate, 200 nM TF, 25 C, 1 h; high values mean tight binding", "details": "protein: recombinant; tags: N-terminal polyhistidine and DsRed monomer fusion (pET32a); chain copies: 2; label: CyDye5-dUTP incorporated in the synthesized complementary strand; 3' TTTTT single-stranded linker to array surface; dsDNA, one strand shown", "outline": "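The binding signal is fluorescence intensity per feature, in arbitrary units, read on an Axon 4000B scanner. Polyhistidine- and DsRed-tagged transcription factors (N-terminal fusions) from E. coli BL21-CodonPlus were purified on Ni–NTA and applied at 200 nM for 1 h at 25 °C to a double-stranded, BSA-blocked custom Agilent array in buffer with 50 µM zinc acetate.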", "values": [
      {"sequence": "CCATCCAGTTGTCAAGTTTGACTCGGATTGATGACTGGACCGGAGTCACCTAGTGCAG", "binding signal": "9540 fluorescence intensity (a.u.)"},
      {"sequence": "CTACCCGATTGCAAGCTCATCGATGTCGATTTCATTCATCCGGAGTCACCTAGTGCAG", "binding signal": "3490 fluorescence intensity (a.u.)"},
      {"sequence": "CAGTCCACATAACCTGAACCCAGCGTCAATCCGCAAGCAACGGAGTCACCTAGTGCAG", "binding signal": "40200 fluorescence intensity (a.u.)"},
      {"sequence": "AACCCTTTCCCGCTGCTTCTGTTCGCCGCCGCCGTGCTCCCGGAGTCACCTAGTGCAG", "binding signal": "17300 fluorescence intensity (a.u.)"},
      {"sequence": "ATTCCATCCGATATGCTTCCTCATCACCTACACGCCCAAACGGAGTCACCTAGTGCAG", "binding signal": "3240 fluorescence intensity (a.u.)"},
      {"sequence": "ATGCTTAAGTTAGTTTGTTTGGTGTGACGCTGGCAGCTGTCGGAGTCACCTAGTGCAG", "binding signal": "5410 fluorescence intensity (a.u.)"},
      {"sequence": "GTAATTACAGCTCATGATTTTCTCTCTCTCTCTCTCTCTACGGAGTCACCTAGTGCAG", "binding signal": "19500 fluorescence intensity (a.u.)"},
      {"sequence": "TGACGACGGCCACCTCTGTTCGATCCACCGCTGACTGGTCCGGAGTCACCTAGTGCAG", "binding signal": "4530 fluorescence intensity (a.u.)"},
      {"sequence": "GAGATGGTGGTGGCGGCGGGGCACGGCGGGCGGCGGAGGCCGGAGTCACCTAGTGCAG", "binding signal": "4390 fluorescence intensity (a.u.)"},
      {"sequence": "CAAGAACACAACGAAACAAAGCCACTCCTGACGTCAGCGTCGGAGTCACCTAGTGCAG", "binding signal": "19400 fluorescence intensity (a.u.)"},
      {"sequence": "TTAATGATTTTATTTGAATGGATCAGGGTCCAATTTGCTGCGGAGTCACCTAGTGCAG", "binding signal": "55800 fluorescence intensity (a.u.)"},
      {"sequence": "CAAACTCTATGACTTTGCATACTATAGTAATGCAATTAAACGGAGTCACCTAGTGCAG", "binding signal": "24600 fluorescence intensity (a.u.)"},
      {"sequence": "CAAGGGATTTGTGGAGGGTGGCATCGCGTCCATCGTCGCTCGGAGTCACCTAGTGCAG", "binding signal": "3690 fluorescence intensity (a.u.)"},
      {"sequence": "CTCACGGTTTAGTTTTAACCACCGACTCTCAAATCTCAATCGGAGTCACCTAGTGCAG", "binding signal": "28200 fluorescence intensity (a.u.)"},
      {"sequence": "AGGTGGTGTAGCGCGCGCGGGTGGGGTTGGGTTACGTGGTCGGAGTCACCTAGTGCAG", "binding signal": "4280 fluorescence intensity (a.u.)"},
      {"sequence": "CATGGATGGAGTGGTAGCTACCGCCAGTTGTGTAGTCATGCGGAGTCACCTAGTGCAG", "binding signal": "3450 fluorescence intensity (a.u.)"},
      {"sequence": "GCTCCATGTGGAGTCACTTAGCGCAGTGTAGCTAGCCATCCGGAGTCACCTAGTGCAG", "binding signal": "3560 fluorescence intensity (a.u.)"},
      {"sequence": "TCATCGATCGGGATGAAGAGCCACGTGGCTTTCCTCTCGCCGGAGTCACCTAGTGCAG", "binding signal": "24200 fluorescence intensity (a.u.)"},
      {"sequence": "CTAGGCAATTTTAAGTGTCTCTACGCTATAAAACTCGTGACGGAGTCACCTAGTGCAG", "binding signal": "8560 fluorescence intensity (a.u.)"},
      {"sequence": "GTGGCAGGCGACGTGGTGGTAGCTCCCCGCCAGCCGCTGCCGGAGTCACCTAGTGCAG", "binding signal": "3180 fluorescence intensity (a.u.)"},
      {"sequence": "CTACCCTATAGTTAAACAAATAGTTTCACTCATTCTTTCACGGAGTCACCTAGTGCAG", "binding signal": "26800 fluorescence intensity (a.u.)"},
      {"sequence": "AGCGGCAGCAGCTTCCATGCTTGGCGATTCGATGCCATGTCGGAGTCACCTAGTGCAG", "binding signal": "3540 fluorescence intensity (a.u.)"},
      {"sequence": "CTGCTGTAATATCTAAGACTATGCAGCTGTCACTGACATGCGGAGTCACCTAGTGCAG", "binding signal": "3740 fluorescence intensity (a.u.)"},
      {"sequence": "GTGTATTCATGCAGAAATTGATCCAAACCAAAACCAAAAGCGGAGTCACCTAGTGCAG", "binding signal": "30400 fluorescence intensity (a.u.)"},
      {"sequence": "ATGAGGTCGACGAAGCCAGTGAGATCCCACGGCTTGGAGTCGGAGTCACCTAGTGCAG", "binding signal": "36700 fluorescence intensity (a.u.)"},
      {"sequence": "AGTTGGTTGGACTTGGAGGTGTCAGCTCAGCTTGGCGCCGCGGAGTCACCTAGTGCAG", "binding signal": "3720 fluorescence intensity (a.u.)"},
      {"sequence": "GGGTGTTATGAGTTGTGTTTGCTGTAGCTTGTCAGCTGTTCGGAGTCACCTAGTGCAG", "binding signal": "3320 fluorescence intensity (a.u.)"},
      {"sequence": "CAGAAGGGGAAGCGGCGTTGCGTGGCTGCTGCTTCTTCTTCGGAGTCACCTAGTGCAG", "binding signal": "3680 fluorescence intensity (a.u.)"},
      {"sequence": "GGCTCGCCGCACACGTGGCGCCACACCATTGGCTCCCGTGCGGAGTCACCTAGTGCAG", "binding signal": "22300 fluorescence intensity (a.u.)"},
      {"sequence": "GAGTTGAGGGACACGTCATATCTGGTATTGTTGTTCAGGGCGGAGTCACCTAGTGCAG", "binding signal": "20000 fluorescence intensity (a.u.)"},
      {"sequence": "AGGCGAAATCGTGTGTAGGTGGCGCGTCATCGAGGGCGAGCGGAGTCACCTAGTGCAG", "binding signal": "4420 fluorescence intensity (a.u.)"},
      {"sequence": "TTCGATTTGTACCGACATGTTTCCGTCCATATTATTCTGTCGGAGTCACCTAGTGCAG", "binding signal": "3420 fluorescence intensity (a.u.)"},
      {"sequence": "CCATGCCCACTCAGCATGTCTCGTGGACACGCTGTCAAGTCGGAGTCACCTAGTGCAG", "binding signal": "7600 fluorescence intensity (a.u.)"},
      {"sequence": "CCGTCCCGACTCTCGTGGTGTCATCCGCTCGTGCGGCGCACGGAGTCACCTAGTGCAG", "binding signal": "3940 fluorescence intensity (a.u.)"},
      {"sequence": "GCGACTGGCTTGCCGCCGCCGTGTCGTCCCTCCATGCCGCCGGAGTCACCTAGTGCAG", "binding signal": "3450 fluorescence intensity (a.u.)"},
      {"sequence": "GTGAGTTCCATAAAATGATGTCGTACAAGTGATTTTATCCCGGAGTCACCTAGTGCAG", "binding signal": "3160 fluorescence intensity (a.u.)"},
      {"sequence": "ACGATTATGTTATATCATAATTCATACAGCAGAAACTTTCCGGAGTCACCTAGTGCAG", "binding signal": "4020 fluorescence intensity (a.u.)"},
      {"sequence": "GCTAATCCGGGAAGAAGAAGAAGAAGAAGCAGGGATTGATCGGAGTCACCTAGTGCAG", "binding signal": "5310 fluorescence intensity (a.u.)"},
      {"sequence": "CTGGTAGGATAAAACGCACGGGTGAAAACACGGAAAATGGCGGAGTCACCTAGTGCAG", "binding signal": "30600 fluorescence intensity (a.u.)"},
      {"sequence": "TAATCTCTCTTTTGCTTTCTTCTGTCCCTCGGGGTGTCTCCGGAGTCACCTAGTGCAG", "binding signal": "20900 fluorescence intensity (a.u.)"},
      {"sequence": "TTTTAATTCAAATGCCACCTAAGCGCCACGTCAACCCTATCGGAGTCACCTAGTGCAG", "binding signal": "23500 fluorescence intensity (a.u.)"},
      {"sequence": "CCCATGAACACACACATACACATCCTACTCAATGGGCATCCGGAGTCACCTAGTGCAG", "binding signal": "3710 fluorescence intensity (a.u.)"},
      {"sequence": "AGTAATTAAAATTTAAGAGGCAAAATTACGTGTGAATTTGCGGAGTCACCTAGTGCAG", "binding signal": "4130 fluorescence intensity (a.u.)"},
      {"sequence": "ACATTTTCACGAGTCTTTTCACTTCCGCCCGCGCCCAAGTCGGAGTCACCTAGTGCAG", "binding signal": "3140 fluorescence intensity (a.u.)"},
      {"sequence": "CAGGCGGCCGCCTCCTCCTCCGCCGCCTCCGCCGCTCCCGCGGAGTCACCTAGTGCAG", "binding signal": "3140 fluorescence intensity (a.u.)"},
      {"sequence": "CGCCGCGGTGGTCGGACTTGTCGCGCGAGCTCGGGATCGACGGAGTCACCTAGTGCAG", "binding signal": "4780 fluorescence intensity (a.u.)"},
      {"sequence": "GACCTCCTCGTCGATTCTTTGCGCATGCACCATCCCTGGGCGGAGTCACCTAGTGCAG", "binding signal": "3470 fluorescence intensity (a.u.)"},
      {"sequence": "TCAACCGTTTTCCCAAAGCTGACGCGATGCGGTACGACCTCGGAGTCACCTAGTGCAG", "binding signal": "5040 fluorescence intensity (a.u.)"},
      {"sequence": "GTTGAGCTCCCGGTATATCTTGCACAGCTCGGTGGTGCGCCGGAGTCACCTAGTGCAG", "binding signal": "3210 fluorescence intensity (a.u.)"},
      {"sequence": "CGCTATTACTTTTGTACCTATATAAGTGAGGTCAGCGCCACGGAGTCACCTAGTGCAG", "binding signal": "3220 fluorescence intensity (a.u.)"},
      {"sequence": "GAGATCGATGGCAGGAGTTGGGGAGAAGATGATGGTTAGCCGGAGTCACCTAGTGCAG", "binding signal": "3540 fluorescence intensity (a.u.)"},
      {"sequence": "GGGCTCCATAATAGAGTGCCACACTAGCATGTTACGATATCGGAGTCACCTAGTGCAG", "binding signal": "3510 fluorescence intensity (a.u.)"},
      {"sequence": "GCCTACCTTCTGGTTCGATCTTCTCCCGCCACGTTCTGCACGGAGTCACCTAGTGCAG", "binding signal": "4310 fluorescence intensity (a.u.)"},
      {"sequence": "GATGCGCACCGCCACGCACTTCATTAATTTCATGTCTCCTCGGAGTCACCTAGTGCAG", "binding signal": "7170 fluorescence intensity (a.u.)"}
    ]}
  ]
}
